The source of these data is the supplement of paper PMC9433722.

Where a name gives a salt, the structure may show the parent alone. This is one part of the list. Single values are uncertain, as repeats are few or missing.

Assay [1] concerns Saos-2. The experiment in a line: cell viability (CCK-8) relative to DMSO control (% of control); higher = less cytotoxic. Conditions: 10 µM; 48 h.
The test system of assay [2] is U2OS. Described as above. Conditions: 10 µM; 48 h.

Regarding `CC(C)[C@H](N)C(=O)OCCOCn1cnc2c(=O)nc(N)[nH]c21` [Valacyclovir·HCl], the values for the cell viability in assay [1] and in assay [2] were 61.2 and 103, respectively.
For `CCCCCOC(=O)Nc1nc(=O)n([C@@H]2O[C@H](C)[C@@H](O)[C@H]2O)cc1F` [Capecitabine], the cell viability worked out at 67.8 in assay [1] and 108 in assay [2].
For `Cn1c(=O)c2c(ncn2CC(O)CO)n(C)c1=O` (stereo not given) [Dyphylline], the figures for the cell viability in assay [1] and in assay [2] were 118 and 56.1, respectively.
Turning to `C[C@]12C=CC(=O)C=C1CC[C@@H]1[C@@H]2[C@@H](O)C[C@@]2(C)[C@H]1CC[C@]2(O)C(=O)CO` [Prednisolone], the cell viability in assay [1] is 67.1; in assay [2], 105.
Taken in the same sequence, the figures for `CC(C)(C)NCC(O)c1cc(O)cc(O)c1` (stereo not given) [Terbutaline Hemisulfate] were 106 and 97.4.
`CCC(=O)OCC(=O)[C@@]1(OC(=O)CC)[C@@H](C)C[C@H]2[C@@H]3CCC4=CC(=O)C=C[C@]4(C)[C@@]3(Cl)[C@@H](O)C[C@@]21C` [Beclomethasone Dipropionate]: the results for the cell viability in assay [1] and in assay [2] were 119 and 113, respectively.
On the same counts, the results for `CCCN[C@H]1CCc2nc(N)sc2C1` [Pramipexole Dihydrochloride Monohydrate] are 60.2 and 114.
Taken in the same sequence, the figures for `O=C(O)[C@H]1/C(=C/CO)O[C@@H]2CC(=O)N21` [Clavulanate Potassium] were 110 and 91.1.
Taken in the same sequence, the figures for `CC(C)c1ccc2oc3nc(N)c(C(=O)O)cc3c(=O)c2c1` [Amlexanox] were 122 and 74.1.
For the molecule `CCN(CC)CCCC(C)Nc1ccnc2cc(Cl)ccc12` (stereo not given) [Chloroquine Diphosphate], the cell viability in assay [1] amounted to 61.2; in assay [2], 84.3.
Consider `CC1(C)O[C@@H]2C[C@H]3[C@@H]4CCC5=CC(=O)C=C[C@]5(C)[C@@]4(F)[C@@H](O)C[C@]3(C)[C@]2(C(=O)CO)O1` [Triamcinolone Acetonide], for which the cell viability in assay [1] worked out at 98.6; in assay [2], 83.3.
Taken in the same sequence, the figures for `O=C(O)c1cn(C2CC2)c2cc(N3CCNCC3)c(F)cc2c1=O` [Ciprofloxacin] were 66.7 and 93.7.
For the molecule `CC(C)NCC(O)COc1ccc(CCOCC2CC2)cc1` (stereo not given) [Betaxolol hydrochloride], the cell viability in assay [1] stood at 61; in assay [2], 108.
Taken in the same sequence, the figures for `O=C(O)c1ccc(-n2nc(-c3ccccc3O)nc2-c2ccccc2O)cc1` [Deferasirox] were 83.7 and 75.1.
Take `Clc1ccc2c(c1)CCc1cccnc1C2=C1CCNCC1` [Desloratadine]: the figures for the cell viability in assay [1] and in assay [2] were 71.2 and 108, respectively.
For the molecule `CCOC(=O)c1ccc(C#Cc2ccc3c(c2)C(C)(C)CCS3)nc1` [Tazarotene], the values for the cell viability in assay [1] and in assay [2] were 105 and 95.2, respectively.
For `CCOC(=O)C1=C[C@@H](OC(CC)CC)[C@H](NC(C)=O)[C@@H](N)C1` [Oseltamivir Phosphate], the cell viability in assay [1] was 62.7; in assay [2], 99.5.
On the same counts, the results for `CN(C/C=C/c1ccccc1)Cc1cccc2ccccc12` [Naftifine·HCl] are 107 and 100.
On the same counts, the results for `CO[C@@]1(NC(=O)C2SC(=C(C(N)=O)C(=O)O)S2)C(=O)N2C(C(=O)O)=C(CSc3nnnn3C)CS[C@@H]21` (stereo not given in full) [Cefotetan Disodium] are 110 and 68.9.
Taken in the same sequence, the figures for `Nc1nc(NC2CC2)c2ncn([C@H]3C=C[C@@H](CO)C3)c2n1` [Abacavir Sulfate] were 93.9 and 82.6.
As for `CC1=C(CC(=O)O)c2cc(F)ccc2/C1=C\c1ccc([S+](C)[O-])cc1` (stereo not given) [Sulindac], the results for the cell viability in assay [1] and in assay [2] were 63.7 and 91.8, respectively.
For `CCOC(=O)[C@H](CCc1ccccc1)N[C@H]1CCc2ccccc2N(CC(=O)O)C1=O` [Benazepril·HCl], the cell viability in assay [1] amounted to 109; in assay [2], 102.
For `Cc1nc(Nc2ncc(C(=O)Nc3c(C)cccc3Cl)s2)cc(N2CCN(CCO)CC2)n1` [Dasatinib], the cell viability in assay [1] turned out to be 57.2; in assay [2] it was 47.
On the same counts, the results for `Nc1ccc(C(=O)NCC(=O)O)cc1` [Aminohippurate . sodium] are 117 and 83.3.
Taken in the same sequence, the figures for `N=C(N)N` [Guanidine·HCl] were 111 and 110.
Taken in the same sequence, the figures for `CC(=O)OCC[N+](C)(C)C` [Acetylcholine Chloride] were 62.3 and 110.
Consider `Cn1ccnc1S` [Methimazole], for which the cell viability in assay [1] came out at 73.5; in assay [2], 106.
On the same counts, the results for `CCCCCOc1ccc(-c2cc(-c3ccc(C(=O)N[C@H]4C[C@@H](O)[C@@H](O)NC(=O)[C@@H]5[C@@H](O)[C@@H](C)CN5C(=O)[C@H]([C@H](O)CC(N)=O)NC(=O)[C@H]([C@H](O)[C@@H](O)c5ccc(O)c(OS(=O)(=O)O)c5)NC(=O)[C@@H]5C[C@@H](O)CN5C(=O)[C@H]([C@@H](C)O)NC4=O)cc3)no2)cc1` [Micafungin] are 112 and 107.
Take `NS(=O)(=O)c1cc(C(=O)O)c(NCc2ccco2)cc1Cl` [Furosemide]: the cell viability in assay [1] is 66.1; in assay [2], 106.
On the same counts, the results for `CC(C)C[C@H](NC(=O)[C@H](Cc1ccccc1)NC(=O)c1cnccn1)B(O)O` [Bortezomib] are 19 and 12.7.
On the same counts, the results for `CC[C@H](C)C(=O)O[C@H]1C[C@@H](C)C=C2C=C[C@H](C)[C@H](CC[C@@H]3C[C@@H](O)CC(=O)O3)[C@H]21` [Lovastatin] are 56.9 and 102.
On the same counts, the results for `O=C1CN2Cc3c(ccc(Cl)c3Cl)N=C2N1` [Anagrelide] are 57.3 and 108.
For the molecule `CN(C)CCc1c[nH]c2ccc(Cn3cncn3)cc12` [Rizatriptan Benzoate], the figures for the cell viability in assay [1] and in assay [2] were 104 and 100, respectively.
Taken in the same sequence, the figures for `CC1(C)O[C@@H]2C[C@H]3[C@@H]4CCC5=CC(=O)CC[C@]5(C)[C@@]4(F)[C@@H](O)C[C@]3(C)[C@]2(C(=O)CCl)O1` [Halcinonide] were 111 and 109.
Regarding `CN1CCN2c3ncccc3Cc3ccccc3C2C1` (stereo not given) [Mirtazapine], the cell viability in assay [1] and in assay [2] was 103 each time.
On to `O=C(O)CCCc1ccccc1` [Sodium Phenylbutyrate], for which the values for the cell viability in assay [1] and in assay [2] were 61.2 and 111, respectively.
Taken in the same sequence, the figures for `COc1ccc([C@@H]2Sc3ccccc3N(CCN(C)C)C(=O)[C@@H]2OC(C)=O)cc1` [Diltiazem . hydrochloride] were 55.4 and 113.
With `C[C@H](N)[C@H](O)c1cccc(O)c1` [Metaraminol Bitartrate], the figures for the cell viability in assay [1] and in assay [2] were 95.8 and 93.1, respectively.
On the same counts, the results for `CN1CC2c3ccccc3Oc3ccc(Cl)cc3C2C1` (stereo not given) [Asenapine Maleate] are 89 and 95.5.
Regarding `Nc1nnc(-c2cccc(Cl)c2Cl)c(N)n1` [Lamotrigine], the figures for the cell viability in assay [1] and in assay [2] were 55.9 and 102, respectively.
Taken in the same sequence, the figures for `Clc1ccccc1C(c1ccccc1)(c1ccccc1)n1ccnc1` [Clotrimazole] were 121 and 111.
On the same counts, the results for `CN(C)CCC=C1c2ccccc2COc2ccccc21` [Doxepin · Hydrochloride] are 113 and 93.2.
As to `CO/N=C(\C(=O)N[C@@H]1C(=O)N2C(C(=O)O)=C(COC(N)=O)CS[C@H]12)c1ccco1` [Cefuroxime·Na], the cell viability in assay [1] worked out at 103; in assay [2], 75.3.
Taken in the same sequence, the figures for `CNC(=O)c1cc(Oc2ccc(NC(=O)Nc3ccc(Cl)c(C(F)(F)F)c3)cc2)ccn1` [Sorafenib tosylate] were 76.3 and 101.
On the same counts, the results for `O=C1c2cccc3c2[C@H](CCC3)CN1[C@@H]1CN2CCC1CC2` [Palonosetron·HCl] are 78.7 and 80.3.
On the same counts, the results for `COC(=O)C1=C(C)NC(C)=C(C(=O)OC)C1c1ccccc1[N+](=O)[O-]` [Nifedipine] are 51.4 and 95.1.
Take `CCN[C@H]1C[C@H](C)S(=O)(=O)c2sc(S(N)(=O)=O)cc21` [Dorzolamide·HCl]: the cell viability was determined as 58.5 in assay [1] and 110 in assay [2].
Taken in the same sequence, the figures for `Nc1ccc(O)c(C(=O)O)c1` [5-Aminosalicylic acid] were 69.2 and 99.
With `C[N+](C)(C)CCOC(=O)CCC(=O)OCC[N+](C)(C)C` [Succinylcholine Chloride·2H2O], the cell viability in assay [1] was found to be 73; in assay [2] it was 115.
On to `CCCCNC(=O)NS(=O)(=O)c1ccc(C)cc1` [Tolbutamide], for which the cell viability in assay [1] stood at 64.7; in assay [2], 110.
On the same counts, the results for `CCN(CC)CCOC(=O)C1(C2CCCCC2)CCCCC1` [Dicyclomine·HCl] are 114 and 91.2.
On the same counts, the results for `C[C@@H](c1ncncc1F)[C@](O)(Cn1cncn1)c1ccc(F)cc1F` [Voriconazole] are 83 and 89.4.
For the molecule `Nc1ccc(S(=O)(=O)c2ccc(N)cc2)cc1` [Dapsone], the cell viability came to 112 in assay [1] and 85.9 in assay [2].
For the molecule `CC1(C)O[C@@H]2C[C@H]3[C@@H]4CCC5=CC(=O)C=C[C@]5(C)[C@H]4[C@@H](O)C[C@]3(C)[C@]2(C(=O)CO)O1` [Desonide], the cell viability came out at 114 in assay [1] and 86.6 in assay [2].
On the same counts, the results for `CCCc1nc(C(C)(C)O)c(C(=O)O)n1Cc1ccc(-c2ccccc2-c2nnn[nH]2)cc1` [Olmesartan] are 66.6 and 94.4.
As for `CC1(C)O[C@@H]2C[C@H]3[C@@H]4C[C@H](F)C5=CC(=O)CC[C@]5(C)[C@H]4[C@@H](O)C[C@]3(C)[C@]2(C(=O)CO)O1` [Flurandrenolide], the cell viability in assay [1] is 108; in assay [2], 101.
On the same counts, the results for `COCCCC/C(=N\OCCN)c1ccc(C(F)(F)F)cc1` [Fluvoxamine Maleate] are 96.9 and 99.1.
Consider `CC[C@H](C)[C@H](N)C1=N[C@H](C(=O)N[C@@H](CC(C)C)C(=O)N[C@H](CCC(=O)O)C(=O)N[C@H](C(=O)N[C@H]2CCCCNC(=O)[C@H](CC(N)=O)NC(=O)[C@@H](CC(=O)O)NC(=O)[C@H](Cc3cnc[nH]3)NC(=O)[C@@H](Cc3ccccc3)NC(=O)[C@H]([C@@H](C)CC)NC(=O)[C@@H](CCCN)NC2=O)[C@@H](C)CC)CS1` [Bacitracin], for which the figures for the cell viability in assay [1] and in assay [2] were 119 and 114, respectively.
For `CC(C)C(=O)Nc1ccc([N+](=O)[O-])c(C(F)(F)F)c1` [Flutamide], the cell viability in assay [1] was 63.4; in assay [2] it was 115.
On the same counts, the results for `C#C[C@]1(O)CC[C@H]2[C@@H]3CCc4cc(OC)ccc4[C@H]3CC[C@@]21C` [Mestranol] are 100 and 99.2.
Taken in the same sequence, the figures for `CN1C(=O)CC(C)(c2ccccc2)C1=O` (stereo not given) [Methsuximide] were 100 and 102.
On the same counts, the results for `c1cnc2cc3c(cc2n1)[C@@H]1CNC[C@H]3C1` [Varenicline Tartrate] are 87.6 and 88.2.
With `Cc1cnc(NC(=O)C2=C(O)c3ccccc3S(=O)(=O)N2C)s1` [Meloxicam], the cell viability came out at 54.6 in assay [1] and 107 in assay [2].
Taken in the same sequence, the figures for `CC=CC(=O)N(CC)c1ccccc1C` [Crotamiton] were 69.8 and 102.
As for `CC(C)c1nc(CN(C)C(=O)N[C@H](C(=O)N[C@@H](Cc2ccccc2)C[C@H](O)[C@H](Cc2ccccc2)NC(=O)OCc2cncs2)C(C)C)cs1` [Ritonavir], the results for the cell viability in assay [1] and in assay [2] were 107 and 103, respectively.
